From patent US10899910B2, “Quaternary cationic polymers” (ECOLAB USA, INC., priority 2016, dated 2021)

Assay: Corrosion bubble cell test (Linear Polarization Resistance)
Details: 2 ppm with 1% 2ME synergist; CO2-saturated brine/hydrocarbon, 80° C.; three hours baseline (Tables 8, 9)
Protocol: (§1) Cationic polymer salts were evaluated for corrosion performance as compared to a C12-C18 alkyl dimethyl benzyl ammonium chloride via a bubble test procedure. The bubble test simulates low flow areas where little or no mixing of water and oil occurs. The test was conducted using brine (80% of the brine being 3% sodium chloride brine and 20% of the brine being a hydrocarbon containing 75% LVT-200 kerosene oil and 25% xylene). The brine was placed into kettles and purged with carbon dioxide. The brine was continually purged with carbon dioxide to saturate the brine prior to starting the test. After the test began, the test cell was blanketed with carbon dioxide one hour prior to electrode insertion and through the duration of the test to maintain saturation. The kettles were stirred at 150 revolutions per minute (rpm) for the duration of the test to maintain thermal equilibrium at 80° C. The corrosion rate was measured by Linear Polarization Resistance (LPR) techniques. The working electrode used was carbon steel. The counter and reference electrodes were both 1018 carbon steel. The electrodes were all cleaned and polished prior to testing. Data were collected for three hours before 20 ppm of each of the compositions (containing 2 ppm of each of various pentaquaternary cationic polymer salts or the comparative C12-C18 alkyl dimethyl benzyl ammonium chloride and 1% 2-mercaptoethanol (2ME) as synergist in an organic solvent) was dosed into its respective cell. Data were collected overnight. A low concentration of the compositions was used to differentiate between the compositions.
Corrosion bubble cell tests were performed according to the method of Example A1 to evaluate a hexaquaternary cationic polymer salt for corrosion performance as compared to a C12-C18 alkyl dimethyl benzyl ammonium chloride. Data were collected for three hours before 20 ppm of each of the compositions (containing 2 ppm of a hexaquaternary cationic polymer salt or the comparative C12-C18 alkyl dimethyl benzyl ammonium chloride and 1% 2ME as synergist in an organic solvent) was dosed into its respective cell. Data were collected overnight. A low concentration of the compositions was used to differentiate between the compositions.
as §1, with “Data were collected for three hours before 20 ppm of each of the compositions (containing 2 ppm of each of various pentaquaternary cationic polymer salts or the comparative C12-C18 alkyl dimethyl benzyl ammonium chloride and 1% 2-mercaptoethanol (2ME) as synergist in an organic solvent) was dosed into its respective cell. Data were collected overnight. A low concentration of the compositions was used to differentiate between the compositions.” left out
With `CCCCCCCCCCCCCCCCCC[N+](C)(C)CC(O)CN(CCN(CCN(CC(O)C[N+](C)(C)C)CC(O)C[N+](C)(C)C)CC(O)C[N+](C)(C)C)CC(O)C[N+](C)(C)C.[Cl-].[Cl-].[Cl-].[Cl-].[Cl-]` (centres unmarked) [Compound 7] the “Inhibited Corrosion Rate 15 h After Cationic Polymer Salt or Compound Addition” value was 90 mpy.
With `CCCCCCCCCCCCCCCCCC[N+](C)(C)CC(O)CN(CCN(CCN(CC(O)C[N+](C)(C)C)CC(O)C[N+](C)(C)CCCCCCCCCCCCCCCCCC)CC(O)C[N+](C)(C)C)CC(O)C[N+](C)(C)C.[Cl-].[Cl-].[Cl-].[Cl-].[Cl-]` (centres unmarked) [Compound 9] the “Inhibited Corrosion Rate 15 h After Cationic Polymer Salt or Compound Addition” value was 90 mpy.
In the case of `CCCCCCCCCCCCCCCCCC[N+](C)(C)CC(O)CN(CCN(CCN(CC(O)C[N+](C)(C)CCCCCCCCCCCCCCCCCC)CC(O)C[N+](C)(C)CCCCCCCCCCCCCCCCCC)CC(O)C[N+](C)(C)C)CC(O)C[N+](C)(C)CCCCCCCCCCCCCCCCCC.[Cl-].[Cl-].[Cl-].[Cl-].[Cl-]` (centres unmarked) [Compound 11], the “Inhibited Corrosion Rate 15 h After Cationic Polymer Salt or Compound Addition” value is reported as 55 mpy.
With `CCCCCCCCCCCCCCCCCC[N+](C)(C)CC(O)CN(CCN(CC(O)C[N+](C)(C)CCCCCCCCCCCCCCCCCC)CC(O)C[N+](C)(C)CCCCCCCCCCCCCCCCCC)CCN(CC(O)C[N+](C)(C)CCCCCCCCCCCCCCCCCC)CC(O)C[N+](C)(C)CCCCCCCCCCCCCCCCCC.[Cl-].[Cl-].[Cl-].[Cl-].[Cl-]` (centres unmarked) [Compound 12] the “Inhibited Corrosion Rate 15 h After Cationic Polymer Salt or Compound Addition” value was 115 mpy.
With `CCCCCCCCCCCCCCCCCC[N+](C)(C)CC(O)CN(CCN(CCN(CC(O)C[N+](C)(C)CCCCCCCCCCCCCCCCCC)CC(O)C[N+](C)(C)CCCCCCCCCCCCCCCCCC)CC(O)C[N+](C)(C)CCCCCCCCCCCCCCCCCC)CCN(CC(O)C[N+](C)(C)CCCCCCCCCCCCCCCCCC)CC(O)C[N+](C)(C)CCCCCCCCCCCCCCCCCC.[Cl-].[Cl-].[Cl-].[Cl-].[Cl-].[Cl-]` (centres unmarked) [Compound 13] the “Inhibited Corrosion Rate 15 h After Cationic Polymer Salt or Compound Addition” value was 114 mpy.
